The record followed here is publication PMC6805918, “Extracellular pyridine nucleotides trigger plant systemic immunity through a lectin receptor kinase/BAK1 complex” (Nature Communications, 2019).

The experiment addresses T1, LecRK-VI.2-FLAG (Arabidopsis thaliana) (UniProt Q9M021).
T1 sequence: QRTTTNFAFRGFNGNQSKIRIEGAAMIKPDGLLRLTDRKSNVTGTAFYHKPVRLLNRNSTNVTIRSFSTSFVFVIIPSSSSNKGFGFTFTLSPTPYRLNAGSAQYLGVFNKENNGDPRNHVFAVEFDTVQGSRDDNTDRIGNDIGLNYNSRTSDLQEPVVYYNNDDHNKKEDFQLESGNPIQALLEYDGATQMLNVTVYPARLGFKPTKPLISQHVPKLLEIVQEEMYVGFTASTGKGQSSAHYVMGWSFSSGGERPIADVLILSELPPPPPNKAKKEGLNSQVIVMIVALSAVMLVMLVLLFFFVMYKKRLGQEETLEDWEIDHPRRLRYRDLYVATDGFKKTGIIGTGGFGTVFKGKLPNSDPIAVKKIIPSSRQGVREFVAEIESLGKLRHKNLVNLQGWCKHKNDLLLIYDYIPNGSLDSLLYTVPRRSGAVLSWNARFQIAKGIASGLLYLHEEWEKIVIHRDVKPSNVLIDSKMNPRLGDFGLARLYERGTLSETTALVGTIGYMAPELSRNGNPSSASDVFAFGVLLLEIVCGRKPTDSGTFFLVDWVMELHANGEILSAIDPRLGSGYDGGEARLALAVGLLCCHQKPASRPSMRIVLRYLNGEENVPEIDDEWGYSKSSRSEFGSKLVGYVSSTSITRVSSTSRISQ
As to the kind of experiment: co-IP; N. benthamiana leaves transiently co-expressing the proteins, with or without 0.8 mM NADP+ for 10 min; total protein extract precipitated with anti-FLAG M2 affinity agarose, 4 °C, 4 hr; immunoblot with anti-FLAG and anti-GFP.

No constants are given. Whether binding was seen depends on the method and setting. Binding seen in cells or lysates may run through a third protein. Some entries that bind do so weakly or less than the wild type. Tags and fused reporters may be left off the sequences shown.

B1: BAK1-GFP (transiently expressed in N. benthamiana) (receptor, UniProt Q94F62 26-615)
chain: NAEGDALSALKNSLADPNKVLQSWDATLVTPCTWFHVTCNSDNSVTRVDLGNANLSGQLVMQLGQLPNLQYLELYSNNITGTIPEQLGNLTELVSLDLYLNNLSGPIPSTLGRLKKLRFLRLNNNSLSGEIPRSLTAVLTLQVLDLSNNPLTGDIPVNGSFSLFTPISFANTKLTPLPASPPPPISPTPPSPAGSNRITGAIAGGVAAGAALLFAVPAIALAWWRRKKPQDHFFDVPAEEDPEVHLGQLKRFSLRELQVASDNFSNKNILGRGGFGKVYKGRLADGTLVAVKRLKEERTQGGELQFQTEVEMISMAVHRNLLRLRGFCMTPTERLLVYPYMANGSVASCLRERPESQPPLDWPKRQRIALGSARGLAYLHDHCDPKIIHRDVKAANILLDEEFEAVVGDFGLAKLMDYKDTHVTTAVRGTIGHIAPEYLSTGKSSEKTDVFGYGVMLLELITGQRAFDLARLANDDDVMLLDWVKGLLKEKKLEALVDVDLQGNYKDEEVEQLIQVALLCTQSSPMERPKMSEVVRMLEGDGLAERWEEWQKEEMFRQDFNYPTHHPAVSGWIIGDSTSQIENEYPSGPR
Take B1: the binding result is reported as “binds”.
